Measured data: PubChem BioAssay AID686937 (Drosophila RNAi Screening Center, 2013)
The screen tested about 23,000 reagents; this is an unselected part of those with a known target gene and a result. 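Reduced-secretion tags in replicate 1 do not always agree with the z-scores; no criterion for assigning the tags was given.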 Not all columns of the deposit are shown. No sequences are given here. Not stated in the record: the amount of reagent.

Screen: 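Genes in the fly needed for secretion of protein constitutively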 (primary screen)
Cell system: Drosophila S2 cells expressing secreted horseradish peroxidase
Reagents: long dsRNA against Drosophila genes
Timing: about 5.5 days (5 days dsRNA, then 12 h reporter induction)
Conditions: reporter expression induced after 5 days of dsRNA, read 12 h later; inducer not stated
Read-out: 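Chemiluminescent measurement of peroxidase in the medium 12 h after reporter induction, following 5 days of dsRNA, given as a z-score per plate; higher means more secretion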
Scale: z-score: higher = more reporter secreted into medium

Adi1 (GeneID 326189) [DRSC10945] — z-score, replicate 1: 0.17
Adi1 (GeneID 326189) [DRSC21485] — z-score, replicate 1: -0.19
mys (GeneID 44885) [DRSC18799] — z-score, replicate 1: 0.49
Fem-1 (GeneID 37344) [DRSC07322] — z-score, replicate 1: 0.05
CG8093 (GeneID 36686) [DRSC07078] — z-score, replicate 1: 0.13
Rh5 (GeneID 34615) [DRSC03412] — z-score, replicate 1: 0.36
CG10026 (GeneID 35226) [DRSC02010] — z-score, replicate 1: 0.62
Cpr60D (GeneID 246492) [DRSC04492] — z-score, replicate 1: 0.57
wol (GeneID 34134) [DRSC03077] — z-score, replicate 1: 0.09
CG42814 (GeneID 10178958) [DRSC15940] — z-score, replicate 1: 0.18
CG8155 (GeneID 36698) [DRSC07084] — z-score, replicate 1: 0.26
CG8155 (GeneID 36698) [DRSC21543] — z-score, replicate 1: 0.22
CG4716 (GeneID 36471) [DRSC06884] — z-score, replicate 1: 0.21
Cpr67Fa1 (GeneID 39223) [DRSC10932] — z-score, replicate 1: 0.53
CG15740 (GeneID 32139) [DRSC19706] — z-score, replicate 1: -4.11
lncRNA:CR34046 (GeneID 12798059) [DRSC14075] — z-score, replicate 1: 0.3
CG6005 (GeneID 42279) [DRSC15945] — z-score, replicate 1: -6.21
CG8607 (GeneID 38805) [DRSC11012] — z-score, replicate 1: -0.04
frma (GeneID 31464) [DRSC18297] — z-score, replicate 1: 0.36
Tdh (GeneID 40268) [DRSC11788] — z-score, replicate 1: -0.5
Cdk4 (GeneID 36854) [DRSC07358] — z-score, replicate 1: -0.25
Muc30E (GeneID 2768931) [DRSC01101] — z-score, replicate 1: 0.41
CG3430 (GeneID 33976) [DRSC02713] — z-score, replicate 1: 0.43
CG10543 (GeneID 37379) [DRSC04081] — z-score, replicate 1: 0.01
aspr (GeneID 33013) [DRSC20689] — z-score, replicate 1: 0.41
aspr (GeneID 33013) [DRSC20690] — z-score, replicate 1: 0.3
Tret1-2 (GeneID 36249) [DRSC07117] — z-score, replicate 1: 0.2
CG5334 (GeneID 32402) [DRSC19941] — z-score, replicate 1: 0.05
CG32486 (GeneID 38367) [DRSC08413] — z-score, replicate 1: 0.39
CG32486 (GeneID 38367) [DRSC08488] — z-score, replicate 1: 0.21
CG32225 (GeneID 317926) [DRSC09657] — z-score, replicate 1: 0.68
CG10631 (GeneID 35262) [DRSC02081] — z-score, replicate 1: 0.04
CG6664 (GeneID 39903) [DRSC10690] — z-score, replicate 1: -0.14
anne (GeneID 317815) [DRSC17103] — z-score, replicate 1: -3.23
RpS13 (GeneID 34149) [DRSC03419] — z-score, replicate 1: -2.65
stl (GeneID 37619) [DRSC04396] — z-score, replicate 1: 0.17
CG43693 (GeneID 39231) [DRSC09086] — z-score, replicate 1: 0.02
CG43693 (GeneID 39231) [DRSC10625] — z-score, replicate 1: 0.09
pyd3 (GeneID 40916) [DRSC15459] — z-score, replicate 1: 0.43
pyd3 (GeneID 40916) [DRSC21640] — z-score, replicate 1: -0.8

Not a retest: entries from further up.
CG4716 (GeneID 36471) [DRSC06884] — z-score, replicate 1: 0.21
Cpr67Fa1 (GeneID 39223) [DRSC10932] — z-score, replicate 1: 0.53
CG15740 (GeneID 32139) [DRSC19706] — z-score, replicate 1: -4.11
lncRNA:CR34046 (GeneID 12798059) [DRSC14075] — z-score, replicate 1: 0.3
